Experimental data taken from the supplement of paper PMC10849652.
This is one part of the list.

By UniProt entry, the sequences of proteins in these tests, tags left out. Where a name states a change or a piece, a line headed by the entry shows the natural chain unless it says otherwise.
UniProt Q2M2Z5: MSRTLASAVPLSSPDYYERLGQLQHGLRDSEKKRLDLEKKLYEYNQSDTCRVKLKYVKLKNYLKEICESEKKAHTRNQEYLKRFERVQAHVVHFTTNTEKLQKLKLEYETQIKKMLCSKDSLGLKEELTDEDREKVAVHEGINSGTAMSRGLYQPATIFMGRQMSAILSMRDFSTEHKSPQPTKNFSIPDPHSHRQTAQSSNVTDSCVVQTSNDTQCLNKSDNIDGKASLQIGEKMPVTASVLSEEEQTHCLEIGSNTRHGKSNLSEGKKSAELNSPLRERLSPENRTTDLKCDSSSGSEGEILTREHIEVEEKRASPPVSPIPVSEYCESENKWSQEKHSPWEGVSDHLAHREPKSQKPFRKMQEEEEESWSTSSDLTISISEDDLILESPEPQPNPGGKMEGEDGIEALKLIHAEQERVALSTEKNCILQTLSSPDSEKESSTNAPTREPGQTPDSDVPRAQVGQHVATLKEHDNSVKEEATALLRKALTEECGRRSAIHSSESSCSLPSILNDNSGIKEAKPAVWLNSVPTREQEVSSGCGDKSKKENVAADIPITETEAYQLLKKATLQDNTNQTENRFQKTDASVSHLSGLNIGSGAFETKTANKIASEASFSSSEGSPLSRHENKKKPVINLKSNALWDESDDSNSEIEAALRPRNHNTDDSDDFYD
UniProt Q9NVR0: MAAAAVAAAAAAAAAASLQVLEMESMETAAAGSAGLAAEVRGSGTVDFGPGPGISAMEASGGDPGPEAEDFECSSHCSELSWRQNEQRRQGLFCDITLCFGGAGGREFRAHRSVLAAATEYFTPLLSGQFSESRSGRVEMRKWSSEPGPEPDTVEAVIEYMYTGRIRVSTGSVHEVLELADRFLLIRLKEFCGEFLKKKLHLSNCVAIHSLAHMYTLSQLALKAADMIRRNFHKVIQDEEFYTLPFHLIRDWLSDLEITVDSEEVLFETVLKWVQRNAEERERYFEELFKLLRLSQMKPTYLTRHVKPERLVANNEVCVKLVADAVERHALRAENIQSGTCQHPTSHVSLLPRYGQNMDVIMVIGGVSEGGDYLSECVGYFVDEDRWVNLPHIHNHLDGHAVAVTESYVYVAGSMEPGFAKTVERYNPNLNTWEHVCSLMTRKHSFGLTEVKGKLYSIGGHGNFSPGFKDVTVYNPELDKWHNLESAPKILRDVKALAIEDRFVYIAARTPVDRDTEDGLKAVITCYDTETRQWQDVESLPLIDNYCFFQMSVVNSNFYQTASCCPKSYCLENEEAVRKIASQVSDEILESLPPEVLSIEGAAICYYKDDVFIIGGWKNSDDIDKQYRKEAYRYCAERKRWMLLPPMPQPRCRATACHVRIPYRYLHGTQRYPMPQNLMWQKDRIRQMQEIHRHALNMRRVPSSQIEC
UniProt Q6PID8: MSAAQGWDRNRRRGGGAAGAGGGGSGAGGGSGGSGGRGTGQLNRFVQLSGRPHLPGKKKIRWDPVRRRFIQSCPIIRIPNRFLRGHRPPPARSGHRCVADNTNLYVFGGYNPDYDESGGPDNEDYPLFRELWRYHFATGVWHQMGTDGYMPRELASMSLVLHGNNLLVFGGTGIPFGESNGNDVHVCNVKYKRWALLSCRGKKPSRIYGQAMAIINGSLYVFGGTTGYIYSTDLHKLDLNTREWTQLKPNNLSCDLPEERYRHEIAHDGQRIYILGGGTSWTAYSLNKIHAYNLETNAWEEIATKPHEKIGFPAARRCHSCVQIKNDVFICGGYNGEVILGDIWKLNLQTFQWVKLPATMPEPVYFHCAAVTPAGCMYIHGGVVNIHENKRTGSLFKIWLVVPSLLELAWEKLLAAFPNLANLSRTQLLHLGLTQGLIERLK
UniProt Q53HC5: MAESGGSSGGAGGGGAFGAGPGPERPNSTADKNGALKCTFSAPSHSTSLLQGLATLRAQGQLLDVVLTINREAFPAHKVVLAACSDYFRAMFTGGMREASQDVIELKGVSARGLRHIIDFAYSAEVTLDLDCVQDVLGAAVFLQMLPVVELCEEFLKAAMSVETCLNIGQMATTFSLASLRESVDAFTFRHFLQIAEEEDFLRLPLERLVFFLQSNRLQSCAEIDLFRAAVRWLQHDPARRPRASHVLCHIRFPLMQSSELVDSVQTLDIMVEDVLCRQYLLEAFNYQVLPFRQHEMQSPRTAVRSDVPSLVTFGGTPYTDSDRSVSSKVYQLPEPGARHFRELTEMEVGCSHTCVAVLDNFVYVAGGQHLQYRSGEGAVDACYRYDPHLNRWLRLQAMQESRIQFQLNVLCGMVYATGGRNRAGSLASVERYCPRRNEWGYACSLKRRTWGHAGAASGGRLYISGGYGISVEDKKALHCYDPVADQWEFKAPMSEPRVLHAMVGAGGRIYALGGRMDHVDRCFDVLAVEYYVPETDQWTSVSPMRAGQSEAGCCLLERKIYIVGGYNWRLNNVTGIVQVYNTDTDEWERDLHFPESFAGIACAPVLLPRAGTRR
UniProt Q9P2G9: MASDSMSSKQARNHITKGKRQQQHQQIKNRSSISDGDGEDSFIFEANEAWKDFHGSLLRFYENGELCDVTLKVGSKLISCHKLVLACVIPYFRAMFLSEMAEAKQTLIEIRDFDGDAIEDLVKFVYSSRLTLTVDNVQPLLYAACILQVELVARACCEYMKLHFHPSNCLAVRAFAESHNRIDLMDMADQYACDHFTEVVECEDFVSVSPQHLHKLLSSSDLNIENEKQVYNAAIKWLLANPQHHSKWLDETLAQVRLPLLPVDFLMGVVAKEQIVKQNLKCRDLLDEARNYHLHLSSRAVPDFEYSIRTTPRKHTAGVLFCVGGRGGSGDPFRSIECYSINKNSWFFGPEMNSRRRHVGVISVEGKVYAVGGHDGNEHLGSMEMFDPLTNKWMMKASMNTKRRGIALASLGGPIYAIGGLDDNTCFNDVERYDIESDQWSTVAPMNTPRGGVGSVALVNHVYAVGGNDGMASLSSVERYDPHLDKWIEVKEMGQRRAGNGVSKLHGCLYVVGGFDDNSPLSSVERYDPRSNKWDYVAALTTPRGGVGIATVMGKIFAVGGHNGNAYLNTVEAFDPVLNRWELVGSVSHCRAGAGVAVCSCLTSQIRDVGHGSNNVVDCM
UniProt Q9ULH0: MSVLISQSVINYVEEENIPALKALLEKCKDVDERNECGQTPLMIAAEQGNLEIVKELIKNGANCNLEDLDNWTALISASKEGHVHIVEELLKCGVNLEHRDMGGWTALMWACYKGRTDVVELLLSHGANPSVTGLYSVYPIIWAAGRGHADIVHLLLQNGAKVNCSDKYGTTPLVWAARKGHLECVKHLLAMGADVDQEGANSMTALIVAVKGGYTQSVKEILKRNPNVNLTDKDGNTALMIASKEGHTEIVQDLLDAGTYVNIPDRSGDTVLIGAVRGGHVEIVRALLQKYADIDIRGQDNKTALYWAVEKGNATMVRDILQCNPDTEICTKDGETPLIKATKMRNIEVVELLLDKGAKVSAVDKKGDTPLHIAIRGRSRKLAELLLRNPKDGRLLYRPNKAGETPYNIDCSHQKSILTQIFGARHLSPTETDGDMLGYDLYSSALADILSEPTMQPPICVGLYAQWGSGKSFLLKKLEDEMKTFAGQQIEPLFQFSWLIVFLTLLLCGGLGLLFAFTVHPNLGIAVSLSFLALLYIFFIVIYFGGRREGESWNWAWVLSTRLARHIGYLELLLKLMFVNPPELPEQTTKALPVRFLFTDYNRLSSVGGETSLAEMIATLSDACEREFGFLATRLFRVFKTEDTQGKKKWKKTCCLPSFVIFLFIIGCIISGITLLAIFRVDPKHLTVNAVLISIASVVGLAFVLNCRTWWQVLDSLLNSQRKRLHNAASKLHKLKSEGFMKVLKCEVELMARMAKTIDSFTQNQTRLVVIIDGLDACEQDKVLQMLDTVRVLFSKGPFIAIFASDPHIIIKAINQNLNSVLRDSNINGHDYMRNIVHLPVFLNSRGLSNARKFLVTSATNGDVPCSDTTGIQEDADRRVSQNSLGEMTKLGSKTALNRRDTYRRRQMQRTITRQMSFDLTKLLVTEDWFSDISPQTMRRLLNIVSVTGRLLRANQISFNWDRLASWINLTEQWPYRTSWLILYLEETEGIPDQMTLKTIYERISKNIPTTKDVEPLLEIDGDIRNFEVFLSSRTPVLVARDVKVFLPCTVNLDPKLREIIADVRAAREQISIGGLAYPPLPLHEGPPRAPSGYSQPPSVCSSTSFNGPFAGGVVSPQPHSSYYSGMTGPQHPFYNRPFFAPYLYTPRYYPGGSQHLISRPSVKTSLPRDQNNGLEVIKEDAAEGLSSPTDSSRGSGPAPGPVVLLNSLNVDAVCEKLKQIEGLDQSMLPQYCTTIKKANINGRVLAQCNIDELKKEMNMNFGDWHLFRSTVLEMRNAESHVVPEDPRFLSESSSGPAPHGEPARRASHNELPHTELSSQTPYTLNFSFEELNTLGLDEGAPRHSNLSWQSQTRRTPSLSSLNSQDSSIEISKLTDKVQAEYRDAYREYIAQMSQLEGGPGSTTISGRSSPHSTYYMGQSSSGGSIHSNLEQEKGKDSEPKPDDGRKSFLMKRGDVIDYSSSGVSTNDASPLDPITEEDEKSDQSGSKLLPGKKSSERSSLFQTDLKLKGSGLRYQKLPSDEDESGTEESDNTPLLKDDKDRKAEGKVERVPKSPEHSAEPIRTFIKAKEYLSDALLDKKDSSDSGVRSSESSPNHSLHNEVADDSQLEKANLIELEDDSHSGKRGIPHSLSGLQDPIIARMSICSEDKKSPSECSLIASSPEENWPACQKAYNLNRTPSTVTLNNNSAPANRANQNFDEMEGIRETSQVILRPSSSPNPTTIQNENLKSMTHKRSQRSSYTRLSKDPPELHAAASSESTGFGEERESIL
UniProt O15131, whole entry, looked up: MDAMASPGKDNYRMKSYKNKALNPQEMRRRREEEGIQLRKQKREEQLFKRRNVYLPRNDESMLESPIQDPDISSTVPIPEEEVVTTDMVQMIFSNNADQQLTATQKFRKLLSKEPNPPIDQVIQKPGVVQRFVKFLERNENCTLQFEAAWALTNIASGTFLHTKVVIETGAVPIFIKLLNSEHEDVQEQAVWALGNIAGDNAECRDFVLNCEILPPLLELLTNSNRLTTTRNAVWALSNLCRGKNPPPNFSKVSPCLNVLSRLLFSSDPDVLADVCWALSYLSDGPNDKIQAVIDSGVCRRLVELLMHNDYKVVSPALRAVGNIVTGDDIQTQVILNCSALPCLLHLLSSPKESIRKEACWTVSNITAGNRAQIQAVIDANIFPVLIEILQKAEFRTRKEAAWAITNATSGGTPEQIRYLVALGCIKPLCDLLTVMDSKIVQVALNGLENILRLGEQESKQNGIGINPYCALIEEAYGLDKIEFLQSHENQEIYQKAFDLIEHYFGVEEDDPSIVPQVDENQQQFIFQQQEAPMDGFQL
UniProt Q8IXV7: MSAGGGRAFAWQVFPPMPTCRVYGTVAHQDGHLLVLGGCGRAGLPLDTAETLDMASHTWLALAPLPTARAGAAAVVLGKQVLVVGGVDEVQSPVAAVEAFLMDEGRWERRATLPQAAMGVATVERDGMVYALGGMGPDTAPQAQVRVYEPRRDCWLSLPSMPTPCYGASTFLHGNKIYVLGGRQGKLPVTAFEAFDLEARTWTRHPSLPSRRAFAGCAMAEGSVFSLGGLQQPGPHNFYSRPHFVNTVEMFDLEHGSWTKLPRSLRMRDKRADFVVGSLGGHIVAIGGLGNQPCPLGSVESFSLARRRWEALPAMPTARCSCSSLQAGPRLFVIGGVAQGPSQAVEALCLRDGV
UniProt Q92845: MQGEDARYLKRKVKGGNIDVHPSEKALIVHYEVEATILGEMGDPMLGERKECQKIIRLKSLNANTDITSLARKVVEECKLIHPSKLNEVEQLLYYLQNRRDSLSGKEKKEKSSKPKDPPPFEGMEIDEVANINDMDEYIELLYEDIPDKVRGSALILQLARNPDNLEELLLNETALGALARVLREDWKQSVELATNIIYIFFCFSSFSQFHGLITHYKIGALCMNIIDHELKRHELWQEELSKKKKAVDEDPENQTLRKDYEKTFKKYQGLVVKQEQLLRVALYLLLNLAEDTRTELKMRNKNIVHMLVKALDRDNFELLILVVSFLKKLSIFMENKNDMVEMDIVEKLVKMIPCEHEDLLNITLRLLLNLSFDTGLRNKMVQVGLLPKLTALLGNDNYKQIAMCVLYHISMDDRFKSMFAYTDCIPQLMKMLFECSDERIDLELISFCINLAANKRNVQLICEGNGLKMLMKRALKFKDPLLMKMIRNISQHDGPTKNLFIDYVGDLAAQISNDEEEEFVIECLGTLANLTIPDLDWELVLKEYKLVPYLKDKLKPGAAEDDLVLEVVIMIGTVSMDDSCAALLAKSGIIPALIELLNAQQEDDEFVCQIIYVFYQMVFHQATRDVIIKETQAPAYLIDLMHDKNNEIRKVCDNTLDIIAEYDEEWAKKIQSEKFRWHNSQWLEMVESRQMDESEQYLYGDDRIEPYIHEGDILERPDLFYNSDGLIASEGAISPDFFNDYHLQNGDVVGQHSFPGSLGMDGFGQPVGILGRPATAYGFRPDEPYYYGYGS

What was measured:
Experiment in all cases: log2 fold change, soluble protein after heating vs DMSO (PISA); higher = thermal stabilisation; K562 lysate, 10 uM; active = over 0.2 and 3.5 SD of the protein, either way, in both replicates (recomputed)
[1] = compound: C#Cc1cccc(Nc2ncnc3cc(OCCOC)c(OCCOC)cc23)c1 [erlotinib]
Method in brief: (§1)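 Soluble protein was defined as the supernatant remaining after 21,000xg for 90 min, following pooling of heated aliquots and adjustment to 0.5% NP-40 at 4°C. Before that, crude K562 extract at 1 mg/mL protein in PBS pH 7.4 with 1 mM MgCl2 was treated with 10 μM compound for 30 min and heated for 3 min across 48°C-58°C. Quantification used TMTpro 16plex LC-MS/MS with channel sums equalised, and values are log-two fold changes in thermal stability relative to solvent controls from duplicates.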

[2] = compound: C/C(=N\NC(=O)C1=CC(=CC=C1)S(=O)(=O)N2CCOCC2)/C3=C(C=CC(=C3)Cl)O
Method in brief: as §1

[3] = compound: C1=CC(=CC=C1C2=NC3=C(N2)C=C(C=C3)C(=O)N)OC4=CC=C(C=C4)Cl
Method in brief: as §1

[4] = compound: C1=CC2=C(C=CC(=C2)/C=C\3/C(=O)NC(=NCC4=CC=CS4)S3)N=C1
Method in brief: as §1

[5] = compound: C1=CC=C(C=C1)C2=NC(=C(N2)C3=CC=NC=C3)C4=CC(=C(C=C4)Cl)O
Method in brief: as §1

[6] = compound: C1=CC=C2C(=C1)C3=NNC4=CC=CC(=C43)C2=O
Method in brief: as §1

[7] = compound: C1CCN(C1)C(=O)NC2=CC=CC(=C2)NC3=NC=C(C(=N3)NCCC4=CN=CN4)Br
Method in brief: as §1

[8] = compound: C1CN(CCC1(CC2=CC=C(C=C2)Cl)N)C3=NC=NC4=C3C=CN4
Method in brief: as §1

[9] = compound: C1COCCN1CCN2C3=CC=CC=C3N=C2NC(=O)C4=CC(=CC=C4)[N+](=O)[O-] [IRAK-1-4 Inhibitor I]
Method in brief: as §1

[10] = compound: CC(C)(C)Cn1c(N)nc2ccc(-c3[nH]c(C(C)(C)C)nc3-c3ccc(F)cc3)nc21 [ralimetinib]
Method in brief: as §1

[11] = compound: CC(C)(O)CC(=O)NCCn1ccc2ncnc(Nc3ccc(Oc4cccc(C(F)(F)F)c4)c(Cl)c3)c21
Method in brief: as §1

[12] = compound: CC(C)C1=C2N=C(C=C(N2N=C1)NCC3=CC=CC=C3)NCCCCCCN
Method in brief: as §1

[13] = compound: CC1=C(C(CC(=O)N1)C2=CC=C(C=C2)C(F)(F)F)C(=O)NC3=C(C=C4C(=C3)C=NN4)F
Method in brief: as §1

[14] = compound: CC1=C(C2=C(C=C1)C(=O)C3=CC=CC=C3N2CCCN)C
Method in brief: as §1

[15] = compound: CC1=C(C=C(C=C1)NC(=O)C2=CC(=CC=C2)C(C)(C)C#N)NC3=CC4=C(C=C3)N=CN(C4=O)C
Method in brief: as §1

[16] = compound: CC1=C(C=C(C=C1)NC(=O)C2=CC(=CC=C2)N(C)C)NC(=O)C3=CC=C(C=C3)O
Method in brief: as §1

[17] = compound: C1=CC2=NC=CN=C2C=C1/C=C/3\C(=O)NC(=O)S3
Method in brief: as §1

[18] = compound: C=CC(=O)N1CCC[C@@H](n2nc(-c3ccc(Oc4ccccc4)cc3)c3c(N)ncnc32)C1 [ibrutinib]
Method in brief: as §1

[19] = compound: CC(=O)c1cnc2ccc(-c3cc(Cl)c(O)c(Cl)c3)nc2c1N[C@H]1CC[C@H](CN(C)C)CC1
Method in brief: as §1

[20] = compound: CC1=CC=C(C=C1)SC2=C3C=C(SC3=CN=C2)C(=O)N
Method in brief: as §1

Measured: log2 fold change

KMT2E (UniProt Q8IZD2)
inactive: [1] 0.03 | [2] 0.181 | [3] 0.18 | [4] -0.031 | [5] 0.05 | [6] -0.354 | [7] -0.093 | [8] 0.034 | [9] 0.184 | [10] -0.074 | [11] 0.007 | [12] 0.037 | [13] -0.052 | [14] 0 | [15] -0.011 | [16] -0.006

KIZ (UniProt Q2M2Z5)
inactive: [1] 0.123 | [2] 0.06 | [3] 0.112 | [4] -0.059 | [17] 0 | [5] -0.06 | [6] -0.278 | [7] 0.024 | [8] -0.059 | [9] 0.03 | [18] -0.011 | [10] 0.027 | [11] -0.035 | [12] 0.026 | [14] 0.178 | [15] 0.012 | [16] -0.01

KLHL12 isoform 2 (UniProt Q53G59)
inactive: [1] -0.051 | [2] 0.021 | [3] 0.004 | [4] 0.053 | [17] 0.165 | [5] -0.134 | [6] 0.04 | [9] 0.046 | [18] 0.156 | [19] 0.067 | [10] 0.123 | [11] -0.032 | [12] 0.073 | [13] 0.026 | [14] -0.041 | [15] -0.066 | [16] 0 | [20] 0.007

KIF21A (UniProt H0YI78)
inactive: [1] -0.064 | [3] 0.088 | [17] -0.015 | [18] -0.187 | [19] -0.073 | [12] -0.006 | [13] 0.107 | [14] 0.017 | [20] 0.031

KIF1B isoform 3 (UniProt O60333)
inactive: [1] 0.008 | [3] 0.059 | [17] 0.006 | [5] -0.128 | [7] -0.006 | [8] 0.153 | [9] 0.215 | [18] -0.113 | [10] 0.067 | [11] 0.051 | [12] 0.081 | [13] 0.139 | [14] -0.339 | [15] 0.046 | [16] -0.147

LAMA5 (UniProt O15230)
inactive: [1] -0.139 | [3] 0.248 | [17] -0.042 | [5] 0.001 | [7] 0.129 | [8] -0.1 | [9] -0.044 | [18] -0.29 | [10] 0.036 | [11] -0.04 | [12] -0.133 | [14] 0.021 | [15] -0.094 | [16] 0.017

KLHL11 (UniProt Q9NVR0)
inactive: [1] -0.042 | [2] 0.017 | [3] 0.115 | [4] 0.035 | [17] 0.021 | [5] -0.023 | [6] -0.035 | [7] -0.195 | [8] 0.142 | [9] 0.033 | [18] -0.036 | [10] -0.039 | [11] 0.052 | [12] 0.063 | [13] 0.011 | [14] 0.014 | [15] 0.072 | [16] -0.101

KLHL17 (UniProt Q6TDP4)
inactive: [1] 0.052 | [3] -0.071 | [17] -0.068 | [5] 0.076 | [7] -0.047 | [8] 0.098 | [9] -0.135 | [18] 0.032 | [10] -0.124 | [11] 0.086 | [12] -0.101 | [16] -0.212

KLHL42 (UniProt Q9P2K6)
inactive: [1] -0.055 | [3] -0.034 | [17] -0.11 | [5] -0.03 | [9] 0.036 | [18] 0.004 | [19] -0.115 | [10] 0.091 | [11] 0.007 | [12] 0.022 | [13] -0.004 | [14] 0.125 | [15] -0.012 | [16] -0.01 | [20] 0.004

KTN1 (UniProt G3V5Q0)
inactive: [1] 0.06 | [2] -0.16 | [3] 0.172 | [4] -0.105 | [17] -0.046 | [6] -0.182 | [7] -0.343 | [8] -0.025 | [18] 0.015 | [12] -0.085

KIAA1586 (UniProt Q9HCI6)
inactive: [1] 0.021 | [2] -0.249 | [3] -0.086 | [4] 0.071 | [17] -0.061 | [5] -0.054 | [6] 0.056 | [9] 0.088 | [18] -0.219 | [10] -0.014 | [11] -0.008 | [12] 0.108 | [13] -0.225 | [14] -0.1 | [16] -0.001

KDM4B (UniProt O94953)
inactive: [1] -0.013 | [2] -0.213 | [3] 0.057 | [4] -0.041 | [5] -0.002 | [6] 0.085 | [7] -0.126 | [8] -0.018 | [9] 0.017 | [10] 0.044 | [11] -0.056 | [12] 0.009 | [13] -0.015 | [14] -0.033 | [15] -0.018 | [16] 0.007

KRT13 (UniProt K7EMD9)
inactive: [1] 0.225 | [3] -0.083 | [17] 0.26 | [5] 0.112 | [9] 0.156 | [18] -0.157 | [10] -0.17 | [11] -0.355 | [12] -0.014 | [16] 0.013

8 consecutive entries from above, for reference:
LAMA5 (UniProt O15230)
inactive: [1] -0.139 | [3] 0.248 | [17] -0.042 | [5] 0.001 | [7] 0.129 | [8] -0.1 | [9] -0.044 | [18] -0.29 | [10] 0.036 | [11] -0.04 | [12] -0.133 | [14] 0.021 | [15] -0.094 | [16] 0.017

KLHL11 (UniProt Q9NVR0)
inactive: [1] -0.042 | [2] 0.017 | [3] 0.115 | [4] 0.035 | [17] 0.021 | [5] -0.023 | [6] -0.035 | [7] -0.195 | [8] 0.142 | [9] 0.033 | [18] -0.036 | [10] -0.039 | [11] 0.052 | [12] 0.063 | [13] 0.011 | [14] 0.014 | [15] 0.072 | [16] -0.101

KLHL17 (UniProt Q6TDP4)
inactive: [1] 0.052 | [3] -0.071 | [17] -0.068 | [5] 0.076 | [7] -0.047 | [8] 0.098 | [9] -0.135 | [18] 0.032 | [10] -0.124 | [11] 0.086 | [12] -0.101 | [16] -0.212

KLHL42 (UniProt Q9P2K6)
inactive: [1] -0.055 | [3] -0.034 | [17] -0.11 | [5] -0.03 | [9] 0.036 | [18] 0.004 | [19] -0.115 | [10] 0.091 | [11] 0.007 | [12] 0.022 | [13] -0.004 | [14] 0.125 | [15] -0.012 | [16] -0.01 | [20] 0.004

KTN1 (UniProt G3V5Q0)
inactive: [1] 0.06 | [2] -0.16 | [3] 0.172 | [4] -0.105 | [17] -0.046 | [6] -0.182 | [7] -0.343 | [8] -0.025 | [18] 0.015 | [12] -0.085

KIAA1586 (UniProt Q9HCI6)
inactive: [1] 0.021 | [2] -0.249 | [3] -0.086 | [4] 0.071 | [17] -0.061 | [5] -0.054 | [6] 0.056 | [9] 0.088 | [18] -0.219 | [10] -0.014 | [11] -0.008 | [12] 0.108 | [13] -0.225 | [14] -0.1 | [16] -0.001

KDM4B (UniProt O94953)
inactive: [1] -0.013 | [2] -0.213 | [3] 0.057 | [4] -0.041 | [5] -0.002 | [6] 0.085 | [7] -0.126 | [8] -0.018 | [9] 0.017 | [10] 0.044 | [11] -0.056 | [12] 0.009 | [13] -0.015 | [14] -0.033 | [15] -0.018 | [16] 0.007

KRT13 (UniProt K7EMD9)
inactive: [1] 0.225 | [3] -0.083 | [17] 0.26 | [5] 0.112 | [9] 0.156 | [18] -0.157 | [10] -0.17 | [11] -0.355 | [12] -0.014 | [16] 0.013

The list goes on:

KLHDC10 (UniProt Q6PID8)
inactive: [1] 0.108 | [2] -0.117 | [3] 0.09 | [4] 0.023 | [17] -0.106 | [5] -0.033 | [6] -0.022 | [7] -0.069 | [8] 0.185 | [9] 0.051 | [18] -0.024 | [10] -0.057 | [11] 0.411 | [12] -0.05 | [13] 0.019 | [14] 0.2 | [15] -0.007 | [16] -0.062

KRI1 (UniProt Q8N9T8)
inactive: [1] -0.017 | [2] -0.038 | [3] -0.017 | [4] -0.1 | [17] -0.012 | [5] 0.02 | [6] -0.138 | [7] 0.033 | [8] -0.04 | [9] 0.047 | [18] -0.023 | [10] 0.047 | [11] -0.018 | [12] 0.043 | [13] 0.074 | [14] -0.069 | [15] 0.02 | [16] 0.046

KIAA0556 (UniProt O60303)
inactive: [13] -0.126

KLF3 (UniProt P57682)
inactive: [5] -0.132 | [7] 0.03 | [8] -0.064 | [9] 0.01 | [10] -0.069 | [11] -0.074 | [13] 0.288 | [15] 0.195 | [16] -0.234

KLHL26 (UniProt Q53HC5)
inactive: [1] 0.094 | [3] 0.122 | [19] 0.018 | [12] -0.209 | [13] -0.254 | [14] -0.098 | [15] 0.074 | [20] 0.067

KLHL8 (UniProt Q9P2G9)
inactive: [5] 0.062 | [9] 0.045 | [10] -0.275 | [11] -0.16 | [16] 0.044

KIF18B (UniProt Q86Y91)
inactive: [7] -0.117 | [8] 0.033 | [19] -0.157 | [14] -0.022 | [15] 0 | [20] -0.121

KISS1R (UniProt Q969F8)
inactive: [13] -0.016 | [15] 0.339

KMT2D (UniProt O14686)
inactive: [14] 0.046

KIDINS220 isoform 2 (UniProt Q9ULH0)
inactive: [2] -0.103 | [4] 0.087 | [6] -0.345

KPNA5 (UniProt O15131)
inactive: [1] -0.071 | [3] 0.079 | [12] 0.002 | [13] 0.189

KLHDC8B (UniProt Q8IXV7)
inactive: [1] -0.024 | [3] -0.093 | [5] 0.019 | [7] 0.061 | [8] 0.031 | [9] -0.144 | [10] -0.092 | [11] -0.004 | [12] 0.016 | [13] -0.037 | [14] 0.104 | [15] 0.079 | [16] 0.106

KIFAP3 (UniProt Q92845)
inactive: [17] -0.003 | [5] 0.029 | [7] -0.118 | [8] 0.179 | [9] 0.023 | [18] 0.017 | [10] -0.013 | [11] 0.009 | [13] 0.144 | [14] 0.009 | [15] -0.027 | [16] -0.018

LAMB2 (UniProt P55268)
inactive: [1] 0.106 | [3] -0.378 | [7] 0.272 | [8] 0.07 | [12] -0.327 | [14] 0.211

KLHL7 isoform 3 (UniProt Q8IXQ5)
inactive: [2] -0.095 | [4] 0.006 | [5] 0.01 | [6] -0.035 | [7] 0.074 | [8] 0.034 | [9] 0.04 | [19] 0 | [10] 0.081 | [11] -0.215 | [13] 0.061 | [15] 0.086 | [16] 0.063 | [20] -0.029
